{"source": "paper PMC7819943", "about": "“Rice protein-binding microarrays: a tool to detect cis-acting elements near promoter regions in rice”", "note": "The other results are listed elsewhere or left out."}
{"target": "T1, OsSMF1 (Oryza sativa, UniProt Q6ZLB0 1-436)", "T1 sequence": "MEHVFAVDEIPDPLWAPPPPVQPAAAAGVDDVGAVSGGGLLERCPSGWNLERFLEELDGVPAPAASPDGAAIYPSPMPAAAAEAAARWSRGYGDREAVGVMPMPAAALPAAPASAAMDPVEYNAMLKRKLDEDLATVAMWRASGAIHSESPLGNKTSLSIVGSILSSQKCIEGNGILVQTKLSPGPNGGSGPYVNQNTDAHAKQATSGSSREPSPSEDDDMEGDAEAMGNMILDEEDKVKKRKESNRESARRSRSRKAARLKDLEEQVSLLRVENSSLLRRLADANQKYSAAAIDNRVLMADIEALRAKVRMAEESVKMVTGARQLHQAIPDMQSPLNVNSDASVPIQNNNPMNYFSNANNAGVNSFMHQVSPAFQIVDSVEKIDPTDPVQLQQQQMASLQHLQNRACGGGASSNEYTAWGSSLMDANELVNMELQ", "test": "protein-binding microarray (RPBM); PBS, 2% BSA, 51.3 ng/ul salmon testes DNA, 50 uM zinc acetate, 200 nM TF, 25 C, 1 h; high values mean tight binding", "settings": "protein: recombinant; tags: N-terminal polyhistidine and DsRed monomer fusion (pET32a); chain copies: 2; label: CyDye5-dUTP incorporated in the synthesized complementary strand; 3' TTTTT single-stranded linker to array surface; dsDNA, one strand shown", "method_in_brief": "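Per-feature fluorescence intensity (arbitrary units), read on an Axon 4000B scanner, is the binding signal. Transcription factors carrying an N-terminal polyhistidine tag and DsRed fusion were expressed in E. coli BL21-CodonPlus and purified on Ni–NTA. A custom Agilent array, made double-stranded by primer extension with Cy5-dUTP and blocked with 2% BSA, was incubated with 200 nM protein in PBS, 2% BSA, salmon testes DNA and 50 µM zinc acetate at 25 °C for 1 h and then washed.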"}
{"sequence": "CACTTATGTATGTGATGCGAAAAGGAGGCGTGTGACTTGTCGGAGTCACCTAGTGCAG", "binding signal": "3270 fluorescence intensity (a.u.)"}
{"sequence": "TTATGAGAAATTACGTAATGCTATTCTCAACCATGCAACCCGGAGTCACCTAGTGCAG", "binding signal": "3460 fluorescence intensity (a.u.)"}
{"sequence": "TGATCGATCACTCTCACACAGCTAGCTGCACGTAAGCTAGCGGAGTCACCTAGTGCAG", "binding signal": "3200 fluorescence intensity (a.u.)"}
{"sequence": "GTTGGATAGAGTAGAGGGAGGAGTAAGTATGTCATGTGGGCGGAGTCACCTAGTGCAG", "binding signal": "3220 fluorescence intensity (a.u.)"}
{"sequence": "GGTCATGGTTTTGGCACGCTTGGATTTGACGCCGCCGGCACGGAGTCACCTAGTGCAG", "binding signal": "3700 fluorescence intensity (a.u.)"}
{"sequence": "CGCGACGAGATTGGGTTTCGGTCGTCGTACCGTGTCCGTGCGGAGTCACCTAGTGCAG", "binding signal": "3680 fluorescence intensity (a.u.)"}
{"sequence": "GAATAACCCCTTGCAATAATTTTATTTACGGATAGGTCCCCGGAGTCACCTAGTGCAG", "binding signal": "17200 fluorescence intensity (a.u.)"}
{"sequence": "GTTTTCCAAAATTTCTTCGTCACGCCCAATTTATCGGATCCGGAGTCACCTAGTGCAG", "binding signal": "4120 fluorescence intensity (a.u.)"}
{"sequence": "TCGAGCTCCACGTAGGCGACGGCGTCCAGTTCGTAGGCGTCGGAGTCACCTAGTGCAG", "binding signal": "13000 fluorescence intensity (a.u.)"}
{"sequence": "GTACTCACTCTCAGTGTCACTCACTTCACTGCTTACACCGCGGAGTCACCTAGTGCAG", "binding signal": "4370 fluorescence intensity (a.u.)"}
{"sequence": "CCGCCCCGCCTGCGAAGACCCTTTTCGGCCGCTTGCGATACGGAGTCACCTAGTGCAG", "binding signal": "3290 fluorescence intensity (a.u.)"}
{"sequence": "GGAGCCTCATTAGCCTGAGTCAGGCGACCGTTTTCGGTCGCGGAGTCACCTAGTGCAG", "binding signal": "4840 fluorescence intensity (a.u.)"}
{"sequence": "ACTCCACCATGGCCGACATGTCAGCGTGCGTTCGTCGATACGGAGTCACCTAGTGCAG", "binding signal": "5650 fluorescence intensity (a.u.)"}
{"sequence": "GGGCACACAAGGAATTTACTCTTATCATTTAGATGGAGATCGGAGTCACCTAGTGCAG", "binding signal": "18200 fluorescence intensity (a.u.)"}
{"sequence": "GGCGAGCAATACCATAGCGTTGGTGTCCGGACCACCACTACGGAGTCACCTAGTGCAG", "binding signal": "3410 fluorescence intensity (a.u.)"}
{"sequence": "GCTAAGAGCAATAGTAGGGAAACAGACCAGTGACCTGGTGCGGAGTCACCTAGTGCAG", "binding signal": "4280 fluorescence intensity (a.u.)"}
{"sequence": "ATAGCTAAAGAAGAAGGAGAAGCTACGTACGTGTACATGACGGAGTCACCTAGTGCAG", "binding signal": "5640 fluorescence intensity (a.u.)"}
{"sequence": "ACTGGGTCAGTTCTCTTTGACAGTTCACTGCTGTCTCTAGCGGAGTCACCTAGTGCAG", "binding signal": "3860 fluorescence intensity (a.u.)"}
{"sequence": "TCCGGGCTGGGTGGGTGGGGTGGGGATGGAGCTTGCCTGGCGGAGTCACCTAGTGCAG", "binding signal": "9640 fluorescence intensity (a.u.)"}
{"sequence": "GTAAAAGTAACAAGTTTAATAGATGTACGTTTTATCGCAACGGAGTCACCTAGTGCAG", "binding signal": "31900 fluorescence intensity (a.u.)"}
{"sequence": "GACTAATTAGGCTCAAAATATTCGTGTCGCGATTTTCATGCGGAGTCACCTAGTGCAG", "binding signal": "3500 fluorescence intensity (a.u.)"}
{"sequence": "TTGCTGAATTGATGACTTCCGCTCCTGGATTGCATGCATGCGGAGTCACCTAGTGCAG", "binding signal": "3180 fluorescence intensity (a.u.)"}
{"sequence": "GAACTCGCGACACCCGCCGGCGAAGGAGCAGCAGCACAGGCGGAGTCACCTAGTGCAG", "binding signal": "5010 fluorescence intensity (a.u.)"}
{"sequence": "ACTTGTCAATTTCCCATCACAAAGAACTAAAACCACCCATCGGAGTCACCTAGTGCAG", "binding signal": "16700 fluorescence intensity (a.u.)"}
{"sequence": "ATTCAGATATTAGTGCAACTGCGCCATGACCACCAAAGAACGGAGTCACCTAGTGCAG", "binding signal": "3710 fluorescence intensity (a.u.)"}
{"sequence": "AATTCTGCCTACCGCCGCTTCATTTTGTGGCCTTGGGATCCGGAGTCACCTAGTGCAG", "binding signal": "20100 fluorescence intensity (a.u.)"}
{"sequence": "GTGGTTGGTGACAGCAACTCGCCTCCTTCCTCCTCACTCCCGGAGTCACCTAGTGCAG", "binding signal": "4080 fluorescence intensity (a.u.)"}
{"sequence": "CTAGCTCTTGATGCGTATTTGTCCCTTCAGTGAATCAGTGCGGAGTCACCTAGTGCAG", "binding signal": "3210 fluorescence intensity (a.u.)"}
{"sequence": "AATCGTCGCGGTTAAAATAAACTGATTTTAACTTACTACACGGAGTCACCTAGTGCAG", "binding signal": "3200 fluorescence intensity (a.u.)"}
{"sequence": "ACAAACTTCAAGTCACCAGTATAATTTTCGTTATTTCTGTCGGAGTCACCTAGTGCAG", "binding signal": "3190 fluorescence intensity (a.u.)"}
{"sequence": "ATGCATACATGCCAGATATGACCAAAATTTGACGGTTCGCCGGAGTCACCTAGTGCAG", "binding signal": "3260 fluorescence intensity (a.u.)"}
{"sequence": "GCACTCTGCCTCCGTTGCCGCCGACGCAGCATGGTCAAGTCGGAGTCACCTAGTGCAG", "binding signal": "7890 fluorescence intensity (a.u.)"}
{"sequence": "ACACAGGTCGGTCTCTCTGCCTGCCTTTCGGAACGGGAAGCGGAGTCACCTAGTGCAG", "binding signal": "4690 fluorescence intensity (a.u.)"}
{"sequence": "ACCCGGCGCCGGAGACGCCACCGCCGCATCCTCTGTCCGCCGGAGTCACCTAGTGCAG", "binding signal": "4220 fluorescence intensity (a.u.)"}
{"sequence": "CACTCCGACCCGACGGCCTCGTCCACGTCACGTGTGCCGCCGGAGTCACCTAGTGCAG", "binding signal": "18400 fluorescence intensity (a.u.)"}
{"sequence": "ACCAGGGGAGGGGACAGCACACACTATCCATTCCAGTGCCCGGAGTCACCTAGTGCAG", "binding signal": "4110 fluorescence intensity (a.u.)"}
{"sequence": "TTCTTAATCAACCTACGTCACTTGCATGCTAGCTCAGGCACGGAGTCACCTAGTGCAG", "binding signal": "4940 fluorescence intensity (a.u.)"}
{"sequence": "CTAGTTCACCTGTCTTTATCAGTTTGCGTTGTGTCATCCGCGGAGTCACCTAGTGCAG", "binding signal": "4320 fluorescence intensity (a.u.)"}
{"sequence": "CAGCCCGACGGCGGCTGCAGACGTGGTTTCTTCCTCCGCCCGGAGTCACCTAGTGCAG", "binding signal": "3200 fluorescence intensity (a.u.)"}
{"sequence": "GGAGCAACGGATCCACCGGCTCTGACGCCGATGAACGCGGCGGAGTCACCTAGTGCAG", "binding signal": "3330 fluorescence intensity (a.u.)"}
{"sequence": "AAAGACAGTCTAACTTCGATTTGTACAGGATAAACAAACCCGGAGTCACCTAGTGCAG", "binding signal": "17100 fluorescence intensity (a.u.)"}
{"sequence": "GCCAATAATTTTCCAACTCATGTACTTAAGCTGAAAGTTGCGGAGTCACCTAGTGCAG", "binding signal": "3610 fluorescence intensity (a.u.)"}
